Test results: PubChem BioAssay AID1671190 (National Center for Advancing Translational Sciences (NCATS), 2021)
In all, about 580,000 compounds went through this assay and about 6,100 (1.1%) were called active. The inconclusive results got no clear call from the source; some entries with a clear call stand among them for comparison. Calls follow the shape of the dose curve; as a rule, active = well fitted inhibition curve with a large enough effect; inconclusive = small, poorly fitted or top-dose-only effect, or another doubt; inactive = no such curve, though single readings can be large or run the other way. Potencies of inconclusive entries are doubtful fits and often do not repeat.

Protein sequences, listed by entry. Tags and fused reporters are not part of them. Lines headed by an entry give the natural chain unless they say otherwise; changes in a name come on top.
UniProt P18054: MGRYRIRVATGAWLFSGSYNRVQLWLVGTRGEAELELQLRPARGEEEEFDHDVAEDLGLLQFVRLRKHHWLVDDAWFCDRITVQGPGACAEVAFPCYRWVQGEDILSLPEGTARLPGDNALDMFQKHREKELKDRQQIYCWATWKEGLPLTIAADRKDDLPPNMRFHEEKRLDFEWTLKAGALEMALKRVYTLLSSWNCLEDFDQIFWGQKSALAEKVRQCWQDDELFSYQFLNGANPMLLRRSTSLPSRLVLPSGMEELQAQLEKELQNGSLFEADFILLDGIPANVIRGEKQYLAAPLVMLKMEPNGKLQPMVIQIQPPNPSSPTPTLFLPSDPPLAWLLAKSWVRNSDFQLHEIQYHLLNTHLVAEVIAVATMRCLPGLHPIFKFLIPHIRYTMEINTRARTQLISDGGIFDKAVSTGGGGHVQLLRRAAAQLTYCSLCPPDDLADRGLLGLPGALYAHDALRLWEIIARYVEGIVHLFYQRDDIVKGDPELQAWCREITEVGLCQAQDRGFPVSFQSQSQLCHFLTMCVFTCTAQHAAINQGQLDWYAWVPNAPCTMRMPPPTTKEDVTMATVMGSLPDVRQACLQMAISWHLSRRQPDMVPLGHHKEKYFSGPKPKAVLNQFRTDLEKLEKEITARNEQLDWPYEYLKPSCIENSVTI

Molecular target: Polyunsaturated fatty acid lipoxygenase ALOX12 (Homo sapiens) (UniProt P18054)
Assay: Primary qHTS assay for inhibitors of human arachidonate 12S-lipoxygenase (ALOX12): Round 2
Details: purified 12hLO, xylenol orange hydroperoxide absorbance; activity change, negative = inhibition: at 108 µM (top of the series) unless noted
Summary of the method: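 Purified human 12hLO (150 nM final) in 25 mM Hepes, 0.01% Triton X-100, pH 7.0 was preincubated 15 min at room temperature with compound. Then 40 uM arachidonic acid was added, 30 min. Hydroperoxide was read by Fe-XO absorbance ratio 573/405 nm.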
% is scaled to controls: 0 for no effect and ±100 for the full control effect; potency is read from the fitted curve at half-maximal effect.

SMILES | Potency | activity change, negative = inhibition
COC(=O)C1CN(C2CC2)CCS(=O)(=O)N1Cc1cn(Cc2ccc(Cl)cc2)nn1 (stereo not drawn) | inconclusive: 79.4 µM [inhibitor, single point] | 
O=C(Nc1cccc(O)c1)c1cc(-c2ccco2)on1 | inconclusive: 50.1 µM [inhibitor, partial curve, poor fit] | 
CCCCCOc1ccc(/C=C2\CCc3ccccc3C2=O)cc1 | inconclusive: 44.7 µM [inhibitor, partial curve] | 
OC(c1ccc(F)cc1)c1nc(-c2ccc(F)c(Cl)c2)cs1 (stereo not drawn) | inconclusive: 100 µM [inhibitor, partial curve, poor fit] | 
Cc1cccc(Oc2nc3ccccn3c(=O)c2/C=C(\C#N)c2nc3ccccc3s2)c1C | inconclusive: 1.26 µM [inhibitor, full curve, poor fit] | 
CCOc1ccccc1-c1cc(C(=O)N/N=C/c2ccc3c(c2)OCO3)c2ccccc2n1 | inconclusive: 31.6 µM [inhibitor, partial curve, poor fit] | 
COC(=O)C(Nc1ccccc1Cl)(c1cc(C)c(O)c(C)c1)C(F)(F)F (stereo not drawn) | inconclusive: 89.1 µM [inhibitor, single point] | 
COc1ccccc1NC(=O)CN1CCC(C(=O)c2ccc(F)cc2)CC1 | inactive | 
C=CCNC(=O)/C=C/c1cccs1 | inconclusive: 0.316 µM [inhibitor, full curve, poor fit] | 
Nc1sccc1C(=O)NCc1ccncc1 | inconclusive: 12.6 µM [inhibitor, full curve, poor fit] | 
C=CCN1C(=O)c2ccc(C(=O)OCC(=O)Nc3ccc(S(N)(=O)=O)cc3)cc2C1=O | inconclusive: 4.47 µM [inhibitor, full curve, poor fit] | 
CCn1ccc2sc(C)c(C(=O)N3CCOCC3)c2c1=O | inactive | 
CCN1CCN(C(=O)c2ccc3c(c2)N(Cc2ccc(Cl)cc2)C(=O)c2ccccc2S3(=O)=O)CC1 | inconclusive: 39.8 µM [inhibitor, partial curve, poor fit] | 
CC(C)Oc1ccc(C2C(C(=O)c3ccco3)=C(O)C(=O)N2Cc2cccnc2)cc1 (stereo not drawn) | inconclusive: 5.62 µM [inhibitor, full curve, poor fit] | 
COc1ccc(-c2[nH]c(-c3ccc(C)cc3)nc2SCC(=O)NCc2ccco2)cc1OC | inactive | 
Cc1cc(=O)n2c(C(=O)Nc3ccc(C)c(Cl)c3)c(C(=O)Nc3ccccc3)sc2n1 |  | inconclusive: -38% [inhibitor]
Fc1ccc(/C=C2\CCCC3=C2N=C2SC=C(c4ccccc4)N2C3c2ccc(F)cc2)cc1 (stereo not drawn) | active: 22.4 µM | 
Clc1ccccc1-c1cc(NCc2ccccc2)ncn1 | inconclusive: 7.94 µM [inhibitor, full curve, poor fit] | 
Cc1ccc(C)c(NC(=S)N2CCC(NC(=O)c3cccc(F)c3)CC2)c1 | inconclusive: 6.31 µM [inhibitor, full curve, poor fit] | 
Cc1ccc2nc(C)cc(C(=O)NCc3ccc4c(c3)OCO4)c2c1 | inconclusive: 100 µM [inhibitor, partial curve, poor fit] | 
Cc1cccc(N2CCN(C(=O)C3CCN(S(=O)(=O)c4c(C)noc4/C=C/c4ccccc4F)CC3)CC2)c1C | inactive | 
OCc1nc2ccccc2[nH]1 | inactive | 
CN1[C@@H](CCC(=O)N2CCOCC2)CNC(=O)[C@@H]2[C@H]1CCN2Cc1cccc(OC(F)(F)F)c1 | inconclusive: 89.1 µM [inhibitor, partial curve, poor fit] | 

SMILES | Potency | activity change, negative = inhibition
O=C(c1cccc(F)c1)N1CCN(Cc2ccc3c(c2)OCO3)CC1 | inconclusive: 0.398 µM [inhibitor, full curve, poor fit] | 
Nc1nc(=S)c2ncn(C3OC(CO)CC3O)c2[nH]1 (stereo not drawn) | inconclusive: 39.8 µM [inhibitor, partial curve] | 
Cc1ccc(-c2nnc(Nc3ccc(CC(N)=O)cc3)c3ccccc23)cc1S(=O)(=O)NCCO | inconclusive: 50.1 µM [inhibitor, partial curve, poor fit] | 
Cc1cccc(/C=C/c2ccc3c([N+](=O)[O-])cccc3n2)c1 | inconclusive: 20 µM [inhibitor, partial curve, poor fit] | 
Cc1ccsc1-c1nc(-c2ccc3c(c2)CCO3)cs1 | inconclusive: 100 µM [inhibitor, single point] | 
COc1cc(NS(=O)(=O)c2ccccc2Br)c(C(=O)O)cc1OC | inconclusive: 44.7 µM [inhibitor, partial curve, poor fit] | 
COc1ccc(-n2ncc3c(N(C)C4CCCCC4)ncnc32)cc1 | inactive | 
Cc1ccc(NC2(c3nnnn3-c3c(C)cccc3C)CCCCC2)cc1 | inactive | 
S=C(NCCc1ccccc1)Nc1c(Cl)cccc1Cl | inconclusive: 28.2 µM [inhibitor, partial curve, poor fit] | 
COc1cc(OC)c(N(C)S(=O)(=O)c2cccc(C(=O)NCc3cccs3)c2)cc1Cl | active: 10 µM | 
Oc1ccc(Nc2ncnc3c2oc2ccccc23)cc1 | inconclusive: 39.8 µM [inhibitor, partial curve, poor fit] | 
O=C(/C=C/c1ccco1)NCCc1ccc(F)cc1 | inconclusive: 50.1 µM [inhibitor, partial curve, poor fit] | 
C(#CCN1CCN(C(c2ccccc2)c2ccccc2)CC1)COCc1ccccc1 | inactive | 
Cc1ccc(NC(=O)N[C@@H]2C=C(C(=O)N[C@H](CC(C)C)C(N)=O)C[C@@H](O)[C@@H]2O)cc1 | inconclusive: 63.1 µM [inhibitor, partial curve, poor fit] | 
O=C(NCc1ccc(F)cc1)c1ccc(CSc2nc3ccncc3n2Cc2ccc(F)cc2)cc1 | inactive | 
CC(C(=O)NC(C)(C)C)n1c(-c2ccccc2)nc2ccccc21 (stereo not drawn) | inactive | 
O=C(Nc1ccc(NS(=O)(=O)c2ccc(F)cc2)cc1)c1cncn1-c1ccccc1 | inactive | 
Cc1cccc(NC(=O)C(C)OC(=O)C2=CN3CCS(=O)(=O)N=C3C=C2)c1 (stereo not drawn) | inconclusive: 89.1 µM [inhibitor, single point] | 
CC(NC(=O)c1ccc(Cl)s1)C1CCCO1 (stereo not drawn) | inactive | 
CC(=O)Nc1c(O)nc(SCC(=O)N2CCCCC2)[nH]c1=O | inconclusive: 25.1 µM [inhibitor, single point] | 
CCC(Oc1ccc(Cl)cc1)C(=O)O (stereo not drawn) | inconclusive: 20 µM [inhibitor, partial curve] | 
O=C(Cn1nnc(-c2ccsc2)n1)N1CCC(c2nc3ccccc3s2)CC1 | inactive | 
Cc1cc(C(=O)Cn2ncc(Cl)c(Cl)c2=O)c(C)n1CC(F)(F)F | inactive | 

SMILES | Potency | activity change, negative = inhibition
COc1ccc(C2/C(=C(/O)c3ccccc3)C(=O)C(=O)N2CCO)cc1 (stereo not drawn) | inconclusive: 5.01 µM [inhibitor, full curve, poor fit] | 
CCNC(=O)CC1COc2ccc(C(=O)NCCOC)cc2N1C (stereo not drawn) | inconclusive: 12.6 µM [inhibitor, partial curve] | 
CN(C)CCNc1ncnc2c1sc1nc(N3CCCC3)c3c(c12)CC(C)(C)OC3 | inactive | 
Cc1cccc(NC(=O)C2C3C=CC(C4CC34)C2C(=O)O)c1 (stereo not drawn) | inactive | 
NS(=O)(=O)c1ccc(NC(=S)NCc2ccc(Cl)cc2)cc1 | inconclusive: 25.1 µM [inhibitor, partial curve, poor fit] | 
CC1(C)CC(=O)C(Sc2ccc(Br)cc2)=C(O)C1 | inconclusive: 31.6 µM [inhibitor, partial curve, poor fit] | 
COc1ccc(C(=O)Nc2ccccc2-c2nnn(CC(=O)N3CCOCC3)n2)cc1 | inactive | 
COc1ccccc1OCCOCCOc1ccc(C)cc1[N+](=O)[O-] | inactive | 
O=CNNC(=S)Nc1cc(Cl)cc(Cl)c1 | inactive | 
Cc1ccc(NC(=S)NCCCO)cc1 | inconclusive: 31.6 µM [inhibitor, partial curve] | 
COCC(=O)Nc1ccc(-n2ccnc2-c2ccc(O)c(OC)c2)cc1C | inactive | 
O=C(NCc1ccco1)C1CC(c2ccccc2)CN(C(=O)c2ccc(F)cc2)C1 (stereo not drawn) | inconclusive: 20 µM [inhibitor, full curve] | 
O=C(NCc1nnc2n1C(C(=O)NCc1cccnc1)CC2)Nc1cccnc1 (stereo not drawn) |  | inactive: 1.57% [at 6.33 µM]
CN1CCN(S(=O)(=O)c2ccc(NC(=O)Cc3cccs3)cc2)CC1 | inconclusive: 112 µM [inhibitor, partial curve, poor fit] | 
COc1ccc(Nc2nc(N)c([N+](=O)[O-])c(NCc3ccccc3)n2)cc1 | inconclusive: 3.55 µM [inhibitor, full curve, poor fit] | 
Cc1ccc(S(=O)(=O)NN=C2C(=O)C3CCC2C3Cl)cc1 (stereo not drawn) | active: 10 µM | 
COc1cc(/C=C2\C(=N)N3N=C(S(C)(=O)=O)SC3=NC2=O)ccc1OCCOc1ccc(C)cc1 | inconclusive: 44.7 µM [inhibitor, partial curve, poor fit] | 
C/C(=N\O)c1cc(C(C)(C)C)c(O)c(C(C)(C)C)c1 | inconclusive: 44.7 µM [inhibitor, partial curve, poor fit] | 
O=S(=O)(Nc1cccc(C#Cc2cccs2)c1)c1cccs1 | inconclusive: 50.1 µM [inhibitor, partial curve, poor fit] | 
CC(O)(c1ccccc1)c1nc(-c2csc3ccccc23)cs1 (stereo not drawn) | inconclusive: 44.7 µM [inhibitor, partial curve, poor fit] | 
CCC1=NN(C(=O)c2ccc(Cl)cc2)C(O)(c2ccccc2)C1 (stereo not drawn) | inactive | 
CCn1ccc2cc(S(=O)(=O)N3CCC(C(=O)NCCCOC(C)C)CC3)ccc21 | inactive | 
